From patent US7785828B1 (priority 2003, dated 2010)

Experiment: Quantitative competition ELISA of NP and defensin concentration in planta
Settings: homogenised leaf from the transgenic wheat plant

Sequence | expression level in planta
NLCERASKTWSGNCGNTKHCDNQCKNWEGAKHGACHVRNGKHKCFCYFNC [L6-28] (Defensin like) | Low expression levels
QKLCQRPSGTWSGVCMNNNACKNQCIRLEKAKHGSCNYVFPAHKCICYFPC (Defensin like) [L2-52] | comparable to the Rs-AFP2 wild type
QKLCQKPSRTWSGVCGNNNACKNQCIRLEKARHGSCNYVFPAHKCICYFPC (Defensin like) [L2-12] | comparable to the Rs-AFP2 wild type
